Measurements published in PubChem BioAssay (NCATS).
This is one part of the list. These are further read-outs of the screen, such as a control signal, another cell line or another target. No call is given for them. Compounds called inactive in the main read-out are mostly missing here. Words in brackets tell the shape of the fitted curve; partial curves, single points and poor fits give uncertain potencies.

Assay: qHTS Assay for Modulators of Human Peripheral Myelin Protein 22 (PMP22) Expression/Activity (AID 1967)
Conditions: Cell-based PMP22 reporter, dual-color luciferase ratio; measured here: green reporter channel AC50; mouse Pmp22 promoter in mouse Schwann cells
How it was run: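 Quantitative HTS in a mouse Schwann cell line expressing dual click beetle luciferases: Pmp22 promoter (green) and control EF-alpha promoter (red). After 24h treatment, corrected green/red signal ratio gave %Activity relative to untreated cells.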

SMILES | AC50
CCOC(=O)c1ncn2c1[C@@H]1CCCN1C(=O)c1cc(OC)ccc1-2 | 75.7 µM [falling, single point]
CN1C[C@@H](CS(=O)(=O)N(C)C)C[C@@H]2c3cccc4c3c(cn4C)C[C@H]21 | 84.9 µM [falling, single point]
COc1cc(CC(C)N)c(OC)cc1I (stereo not drawn) | 67.5 µM [falling, partial curve]
CCn1cnc2c(Nc3cccc(Cl)c3)nc(N[C@@H]3CCCC[C@@H]3N)nc21 | 37.9 µM [falling, full curve]

Same assay, conditions: Cell-based PMP22 reporter, dual-color luciferase ratio; measured here: red reporter channel AC50; EF-alpha promoter control reporter in MSC80 mouse Schwann cells

SMILES | AC50
COc1cc(C[C@@H](C)N)c(OC)cc1I | 84.9 µM [falling, single point]
c1ccc2nc(N3CCNCC3)ccc2c1 | 75.7 µM [falling, partial curve]
NC(CP(=O)(O)O)C(=O)O (stereo not drawn) | 84.9 µM [falling, single point]
O=[N+]([O-])c1ccc(O[C@@H]2O[C@H](CO)[C@@H](O)[C@H](O)[C@H]2F)c([N+](=O)[O-])c1 | 16.9 µM [rising, partial curve, poor fit]
NC(=O)c1cc(N2CC2)c([N+](=O)[O-])cc1[N+](=O)[O-] | 75.7 µM [falling, single point]
CC(C)Oc1cccnc1N(C)C1CCN(Cc2ccccc2)CC1 | 84.9 µM [falling, single point]
COc1ccc2c(c1O)-c1cccc3c1C(C2)N(C)CC3 (stereo not drawn) | 67.5 µM [falling, partial curve]
CCCn1c(=O)c2[nH]c(C3CCCC3)nc2n(CCCOC(=O)c2ccc(S(=O)(=O)F)cc2)c1=O | 47.8 µM [falling, partial curve, poor fit]
C#CCOC(=O)C1=CCCN(C)C1 | 84.9 µM [falling, single point]
CC(N)C(=O)OC(C)(C)Cc1ccc(Cl)cc1 (stereo not drawn) | 84.9 µM [falling, single point]
CP(=O)(O)C1=CCNCC1 | 84.9 µM [falling, single point]
CCCN(CCC)[C@H]1CCc2c(F)ccc(O)c2C1 | 26.9 µM [rising, partial curve, poor fit]
CC1OC1P(=O)(O)O (stereo not drawn) | 12 µM [rising, partial curve]
NNCc1cccc(O)c1 | 21.3 µM [falling, partial curve]
COC(=O)c1cc2c(cn1)[nH]c1ccccc12 | 67.5 µM [falling, partial curve]
NCCCP(=O)(O)O | 95.3 µM [falling, single point]
C[C@]12CC[C@H](O)CC1=CCC1C2CC[C@]2(C)C(=O)CC[C@@H]12 (stereo partly drawn) | 95.3 µM [falling, single point]
CC(C)NC(C)Cc1ccc(I)cc1 (stereo not drawn) | 84.9 µM [falling, single point]
CN1CCc2cc(O)cc3c2C1Cc1ccc(O)c(O)c1-3 (stereo not drawn) | 37.9 µM [falling, full curve]
CNc1ccc2oc(C[C@H]3O[C@@]4(CC[C@H]3C)O[C@H]([C@H](C)C(=O)c3ccc[nH]3)[C@H](C)C[C@H]4C)nc2c1C(=O)O | 6.01 µM [falling, full curve]
CCOC(=O)c1ncn2c1[C@@H]1CCCN1C(=O)c1cc(OC)ccc1-2 | 75.7 µM [falling, partial curve]
CN1C[C@@H](CS(=O)(=O)N(C)C)C[C@@H]2c3cccc4c3c(cn4C)C[C@H]21 | 84.9 µM [falling, single point]
COc1cc(CC(C)N)c(OC)cc1I (stereo not drawn) | 67.5 µM [falling, partial curve]
CCn1cnc2c(Nc3cccc(Cl)c3)nc(N[C@@H]3CCCC[C@@H]3N)nc21 | 19 µM [falling, full curve]
Cc1ncc(CNC(=O)N(CCCl)N=O)c(N)n1 | 84.9 µM [falling, single point]

Assay: qHTS Validation Assay to Find Inhibitors of Chronic Active B-Cell Receptor Signaling (AID 485345)
Conditions: ABC-DLBCL cells, chronic BCR signaling reporter; measured here: CBR control luciferase (viability counter)
How it was run: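 TMD8 ABC-DLBCL cells stably carrying doxycycline-inducible IkappaBalpha–green luciferase fusion plus unfused red luciferase; compounds 46 uM to 3 nM, 4 h at 37C with doxycycline. Corrected green/red luminescence ratio normalized to 10 uM MG-132 and basal cell wells; curves fitted.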

SMILES | AC50
CCCn1c(=O)c2[nH]c(C3CCCC3)nc2n(CCCOC(=O)c2ccc(S(=O)(=O)F)cc2)c1=O | 9.2 µM [falling, partial curve]
CNc1ccc2oc(C[C@H]3O[C@@]4(CC[C@H]3C)O[C@H]([C@H](C)C(=O)c3ccc[nH]3)[C@H](C)C[C@H]4C)nc2c1C(=O)O | 29.1 µM [falling, single point]
CCn1cnc2c(Nc3cccc(Cl)c3)nc(N[C@@H]3CCCC[C@@H]3N)nc21 | 5.17 µM [falling, full curve]

Assay: Nrf2 qHTS screen for inhibitors: Validation (AID 493153)
Conditions: A549 ARE-Fluc reporter, 18-24 h; AC50: CellTiter-Fluor fluorescence read, measured here: cytotoxicity CellTiter-Fluor AC50; viability change: measured here: cytotoxicity max response
How it was run: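 Luminescence from an ARE-firefly luciferase reporter in A549 cells gives Nrf2 inhibition; an earlier CellTiter-Fluor fluorescent read flags cytotoxicity. Cells in 5% FBS OPTI-MEM received compound dilution series for 18-24 h at 37°C.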

SMILES | viability change | AC50
C[C@@H](N)Cc1cnc[nH]1 | -2.69% | –
CNc1ccc2oc(C[C@H]3O[C@@]4(CC[C@H]3C)O[C@H]([C@H](C)C(=O)c3ccc[nH]3)[C@H](C)C[C@H]4C)nc2c1C(=O)O | -64.2% | 4.11 µM [falling, full curve]
Cc1ncc(CNC(=O)N(CCCl)N=O)c(N)n1 | 2.3% | –
